We go through one sequence from PMC9832833, “Mitogen-activated protein kinase 14-mediated phosphorylation of MaMYB4 negatively regulates banana fruit ripening”.

For at least one entry, the source does not settle the construct or the ends of the probe. For some of these results: Negatives hold for the conditions tested. For some of these results: The comparison behind a weaker result is the experiment's own reference, which may not be listed here. For some of these results: Where a protein sequence is shown, tags need not be part of it.

What all share (test): EMSA
Series [1] deals with GST-MaMYB4 phosphorylated by MaMPK14 (Musa acuminata (banana)) (UniProt A0A804HW33). As to conditions: preincubated with MBP-MaMPK14, 10 mM ATP, 20 mM MgCl2, binding enhanced vs GST-MaMYB4 alone, EMSA buffer not stated (kit per cited Fan et al.), kinase preincubation in 20 mM Tris-HCl, 20 mM MgCl2, 100 mM NaCl, 2 mM DTT, 0.5 h at 30 C, pH not stated, recombinant protein, protein details: GST (N-term, pGEX-4T-1), label: biotin.

In a further series the test system is GST. As to conditions: GST alone; EMSA buffer not stated (kit per cited Fan et al.); kinase preincubation in 20 mM Tris-HCl, 20 mM MgCl2, 100 mM NaCl, 10 mM ATP, 2 mM DTT, 0.5 h at 30 C; pH not stated; recombinant protein; protein details: GST; label: biotin.
In series [2] the target is T1, GST-MaMYB4S160A (Musa acuminata (banana)) (UniProt A0A804HW33).
T1 sequence (looked up, limits assumed): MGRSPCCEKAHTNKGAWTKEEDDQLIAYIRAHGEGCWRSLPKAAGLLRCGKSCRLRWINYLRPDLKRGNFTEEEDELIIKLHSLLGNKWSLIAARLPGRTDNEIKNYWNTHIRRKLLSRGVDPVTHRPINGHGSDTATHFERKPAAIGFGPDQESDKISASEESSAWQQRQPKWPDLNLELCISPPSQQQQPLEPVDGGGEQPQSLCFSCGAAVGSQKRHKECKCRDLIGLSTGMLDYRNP
As to conditions: kinase preincubation in 20 mM Tris-HCl, 20 mM MgCl2, 100 mM NaCl, 2 mM DTT, 0.5 h at 30 C, pH not stated, recombinant protein, protein details: GST (N-term, pGEX-4T-1), label: biotin.

Consider “CCAAAAACAGGGTAGGTGGATGGCTTACATGCTCACCTAATAATTTATTT (double strand) [MaACS1 promoter probe]”, for which the binding result in series [1] is given as “binds”; in the series on GST, “no binding”; in series [2] (preincubated with MBP-MaMPK14, 10 mM ATP, 20 mM MgCl2, EMSA buffer not stated (kit per cited Fan et al.)), “binds more weakly”; in series [2] (without MBP-MaMPK14, EMSA buffer not stated (kit per cited Fan et al.), 10 mM ATP), “binds more weakly”.
